Measurements published in US20090048324A1.
Positions count from the first letter of the chain named. Numbers in names are those of the source. These are yes or no findings as the source states them, for the method shown. Some results given as binding are weak or reduced against the parent protein; the word gives no strength.

Key:
[1] = target: pea (Pisum sativum) porphobilinogen synthase (Pisum sativum (pea)) (UniProt P30124); experiment: two-dimensional native PAGE, gel incubated with 10 mM ALA and 10 mM Mg2+ at 37 C for 20 min between the dimensions
[2] = target: pea (Pisum sativum) porphobilinogen synthase (Pisum sativum (pea)) (UniProt P30124); experiment: two-dimensional native PAGE, no incubation between the dimensions
[3] = target: pea (Pisum sativum) porphobilinogen synthase (Pisum sativum (pea)) (UniProt P30124); experiment: native PAGE (12.5% PhastGel) of pea PBGS at 1 mg/mL after 30 min with morphlock-1 (small molecule)
[4] = target: pea (Pisum sativum) porphobilinogen synthase (Pisum sativum (pea)) (UniProt P30124); experiment: two-dimensional native PAGE, gel incubated in 0.1 M BTP pH 8.5, 37 C, 20 min between the dimensions
[5] = target: pea (Pisum sativum) porphobilinogen synthase (Pisum sativum (pea)) (UniProt P30124); experiment: native PAGE, first dimension, Coomassie stained
[6] = target: pea (Pisum sativum) porphobilinogen synthase (Pisum sativum (pea)) (UniProt P30124); experiment: native gel electrophoresis of pea PBGS with rising EDTA
[7] = target: pea PBGS variant C326A (Pisum sativum (pea)) (UniProt P30124); experiment: native gel electrophoresis (12.5% acrylamide) of pea PBGS C326A
[8] = target: pea PBGS variant C326A (Pisum sativum (pea)) (UniProt P30124); experiment: native gel electrophoresis

Measured: binding

B1: pea (Pisum sativum) porphobilinogen synthase (enzyme, Pisum sativum (pea), UniProt P30124 69-398, looked up)
chain: SLPIQRRPRRNRRSPALRSAFQETTLSPANFVYPLFIHEGEEDTPIGAMPGCYRLGWRHGLLEEVAKARDVGVNSVVLFPKIPDALKTPTGDEAYNEDGLVPRSIRLLKDKYPDLIIYTDVALDPYSSDGHDGIVREDGVIMNDETVHQLCKQAVAQARAGADVVSPSDMMDGRVGAMRVALDAEGFQHVSIMSYTAKYASSFYGPFREALDSNPRFGDKKTYQMNPANYREALTEMREDESEGADILLVKPGLPYLDIIRLLRDNSPLPIAAYQVSGEYSMIKAGGALKMIDEEKVMMESLLCLRRAGADIILTYFALQAARTLCGEKR
binds: [1] | [2] | [3] | [4] | [5] | [6]

B2: pea PBGS variant C326A (enzyme, Pisum sativum (pea), UniProt P30124 69-398, looked up)
chain: B1 chain with C326A
binds: [7] | [8]
